Drawing on paper PMC12464895, this text covers binding for three molecules.

Protein sequences, listed by entry. Tags and fused reporters are not part of them.
UniProt Q969Q1: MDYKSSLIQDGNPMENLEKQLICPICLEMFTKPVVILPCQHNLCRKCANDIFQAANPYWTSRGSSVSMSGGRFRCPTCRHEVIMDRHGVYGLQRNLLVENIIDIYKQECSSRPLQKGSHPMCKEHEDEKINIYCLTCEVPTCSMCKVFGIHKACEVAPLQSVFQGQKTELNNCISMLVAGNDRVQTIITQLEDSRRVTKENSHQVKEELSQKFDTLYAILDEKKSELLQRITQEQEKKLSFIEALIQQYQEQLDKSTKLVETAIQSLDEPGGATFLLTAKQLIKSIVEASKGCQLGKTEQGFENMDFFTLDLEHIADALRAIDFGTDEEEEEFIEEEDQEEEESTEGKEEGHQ
UniProt Q38HM4: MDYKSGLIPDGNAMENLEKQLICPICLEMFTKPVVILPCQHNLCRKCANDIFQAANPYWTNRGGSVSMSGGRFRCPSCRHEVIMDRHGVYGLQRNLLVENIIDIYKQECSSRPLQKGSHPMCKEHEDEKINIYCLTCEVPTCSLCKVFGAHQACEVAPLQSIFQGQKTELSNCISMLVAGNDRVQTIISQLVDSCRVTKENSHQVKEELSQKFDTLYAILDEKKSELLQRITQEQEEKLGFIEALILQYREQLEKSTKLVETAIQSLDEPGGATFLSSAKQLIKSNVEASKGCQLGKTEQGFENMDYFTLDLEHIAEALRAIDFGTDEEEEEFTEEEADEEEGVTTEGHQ

These are yes or no findings as the source states them, for the method shown. In cells and extracts the contact can be indirect. Some results given as binding are weak or reduced against the parent protein; the word gives no strength. For part of these data: Where a sequence is shown, tags or fusion partners need not be part of it.

Assay [1] has as its target GFP-MuRF1 (human MuRF1 fused with a GFP tag at the N-terminus), stably expressed in L6 myotubes (human) (UniProt Q969Q1). Description: co-IP; GFP pulldown with GFP-Trap agarose beads from total lysates (1 mg) of L6 myotubes stably expressing GFP-MuRF1 or GFP-empty; overnight at 4°C in sucrose lysis buffer (1% Triton X-100); immunoblot for TRIM72.
Assay [2] has as its target GFP-MuRF1 knock-in (endogenous MuRF1 with an N-terminal GFP tag) in C2C12 myotubes (mouse (endogenous in C2C12)) (UniProt Q38HM4). Description: co-IP; GFP pulldown with GFP-Trap agarose beads, or beads bound with IgG as a control, from total lysates (1 mg) of GFP-MuRF1 knock-in C2C12 myotubes; overnight at 4°C in sucrose lysis buffer (1% Triton X-100); immunoblot for TRIM72.

Assay [3] deals with GFP-MuRF1, transiently expressed in HEK293 cells (human) (UniProt Q969Q1). Kind of assay: co-IP; GFP pulldown with GFP-Trap agarose beads from total lysates (0.5 mg) of HEK293 cells co-transfected for 48 h with FLAG-TRIM72 and GFP-MuRF1 or GFP-empty; immunoblot with Flag antibody; one experiment. On the technique in general: A western blot detects proteins with antibodies after separation by electrophoresis.

B1: TRIM72 (tripartite motif-containing protein 72), endogenous in L6 myotubes (protein, UniProt A0JPQ4 1-477)
chain: MSTAPGLLRQELSCPLCLQLFDAPVTAECGHSFCRACLIRVAGEPADDGTVACPCCQASTRPQALSTNLQLARLVEGLAQVPQGHCEEHLDPLSIYCEQDRTLVCGVCASLGSHRGHRLLPAAEAHARLKTQLPQQKAQLQEACMRKEKSVAVLEHQLVEVEETVRQFRGAVGEQLGKMRMFLAALESSLDREAERVRGEAGVALRRELSSLNSYLEQLRQMEKVLEEVADKPQTEFLMKFCLVTSRLQKILSESPPPARLDIQLPVISDDFKFQVWKKMFRALMPELEELTFDPSSAHPSLVVSASGRRVECSEQKAPPAGEDTCQFDKTVAVVAKQLLSQGEHYWEVEVGDKPRWALGVMAADASRRGRLHAVPSQGLWLLGLRDGKILEAHVEAKEPRALRTPERPPARIGLYLSFADGVLTFYDASNTDALTPLFSFHERLPGPVYPMFDVCWHDKGKNSQPLLLVGPDSEQA
For B1, in assay [1], the binding result is “binds”.

B2: TRIM72 (tripartite motif-containing protein 72), endogenous in C2C12 myotubes (protein, UniProt Q1XH17 1-477)
chain: MSAAPGLLRQELSCPLCLQLFDAPVTAECGHSFCRACLIRVAGEPAADGTVACPCCQAPTRPQALSTNLQLSRLVEGLAQVPQGHCEEHLDPLSIYCEQDRTLVCGVCASLGSHRGHRLLPAAEAQARLKTQLPQQKMQLQEACMRKEKTVAVLEHQLVEVEETVRQFRGAVGEQLGKMRMFLAALESSLDREAERVRGDAGVALRRELSSLNSYLEQLRQMEKVLEEVADKPQTEFLMKFCLVTSRLQKILSESPPPARLDIQLPVISDDFKFQVWKKMFRALMPALEELTFDPSSAHPSLVVSSSGRRVECSDQKAPPAGEDTRQFDKAVAVVAQQLLSQGEHYWEVEVGDKPRWALGVMAADASRRGRLHAVPSQGLWLLGLRDGKILEAHVEAKEPRALRTPERPPARIGLYLSFADGVLAFYDASNPDVLTPIFSFHERLPGPVYPIFDVCWHDKGKNAQPLLLVGPEQEQA
In the case of B2, the binding entry in assay [2] was “binds”.

B3: FLAG-TRIM72, transiently expressed in HEK293 cells (protein, UniProt Q6ZMU5 1-477)
chain: MSAAPGLLHQELSCPLCLQLFDAPVTAECGHSFCRACLGRVAGEPAADGTVLCPCCQAPTRPQALSTNLQLARLVEGLAQVPQGHCEEHLDPLSIYCEQDRALVCGVCASLGSHRGHRLLPAAEAHARLKTQLPQQKLQLQEACMRKEKSVAVLEHQLVEVEETVRQFRGAVGEQLGKMRVFLAALEGSLDREAERVRGEAGVALRRELGSLNSYLEQLRQMEKVLEEVADKPQTEFLMKYCLVTSRLQKILAESPPPARLDIQLPIISDDFKFQVWRKMFRALMPALEELTFDPSSAHPSLVVSSSGRRVECSEQKAPPAGEDPRQFDKAVAVVAHQQLSEGEHYWEVDVGDKPRWALGVIAAEAPRRGRLHAVPSQGLWLLGLREGKILEAHVEAKEPRALRSPERRPTRIGLYLSFGDGVLSFYDASDADALVPLFAFHERLPRPVYPFFDVCWHDKGKNAQPLLLVGPEGAEA
As for B3, the binding result in assay [3] is listed as “binds”.
